The values below come from the supplement of paper PMC10849652.

Protein sequences, listed by entry. Tags and fused reporters are not part of them. Lines headed by an entry give the natural chain unless they say otherwise; changes in a name come on top.
UniProt P15407: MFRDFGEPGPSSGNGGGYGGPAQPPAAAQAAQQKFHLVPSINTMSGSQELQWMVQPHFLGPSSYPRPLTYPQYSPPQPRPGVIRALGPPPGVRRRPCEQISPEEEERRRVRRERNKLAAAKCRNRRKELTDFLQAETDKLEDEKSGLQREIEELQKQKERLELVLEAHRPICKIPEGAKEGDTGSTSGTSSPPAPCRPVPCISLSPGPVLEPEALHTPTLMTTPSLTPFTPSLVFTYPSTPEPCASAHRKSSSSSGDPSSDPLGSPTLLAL
UniProt Q9HB96: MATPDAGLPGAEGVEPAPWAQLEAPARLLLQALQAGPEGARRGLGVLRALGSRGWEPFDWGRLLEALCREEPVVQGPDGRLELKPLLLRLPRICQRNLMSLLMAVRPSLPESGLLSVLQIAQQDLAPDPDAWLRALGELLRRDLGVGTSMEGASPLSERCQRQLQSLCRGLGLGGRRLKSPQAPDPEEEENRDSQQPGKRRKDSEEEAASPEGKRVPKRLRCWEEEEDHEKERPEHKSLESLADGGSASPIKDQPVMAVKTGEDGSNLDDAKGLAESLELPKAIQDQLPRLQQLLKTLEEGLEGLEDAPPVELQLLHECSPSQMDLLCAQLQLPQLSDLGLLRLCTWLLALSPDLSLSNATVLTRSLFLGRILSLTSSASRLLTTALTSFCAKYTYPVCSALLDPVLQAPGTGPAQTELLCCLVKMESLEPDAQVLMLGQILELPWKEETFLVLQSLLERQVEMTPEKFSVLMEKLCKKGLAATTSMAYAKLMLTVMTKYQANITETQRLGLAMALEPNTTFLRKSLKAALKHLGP
UniProt Q9Y324: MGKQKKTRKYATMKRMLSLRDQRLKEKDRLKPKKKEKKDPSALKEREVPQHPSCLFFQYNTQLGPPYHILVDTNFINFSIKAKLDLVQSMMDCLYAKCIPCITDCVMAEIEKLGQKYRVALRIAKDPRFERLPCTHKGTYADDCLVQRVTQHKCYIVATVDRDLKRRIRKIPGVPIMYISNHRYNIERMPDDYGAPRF
UniProt Q8NFZ0: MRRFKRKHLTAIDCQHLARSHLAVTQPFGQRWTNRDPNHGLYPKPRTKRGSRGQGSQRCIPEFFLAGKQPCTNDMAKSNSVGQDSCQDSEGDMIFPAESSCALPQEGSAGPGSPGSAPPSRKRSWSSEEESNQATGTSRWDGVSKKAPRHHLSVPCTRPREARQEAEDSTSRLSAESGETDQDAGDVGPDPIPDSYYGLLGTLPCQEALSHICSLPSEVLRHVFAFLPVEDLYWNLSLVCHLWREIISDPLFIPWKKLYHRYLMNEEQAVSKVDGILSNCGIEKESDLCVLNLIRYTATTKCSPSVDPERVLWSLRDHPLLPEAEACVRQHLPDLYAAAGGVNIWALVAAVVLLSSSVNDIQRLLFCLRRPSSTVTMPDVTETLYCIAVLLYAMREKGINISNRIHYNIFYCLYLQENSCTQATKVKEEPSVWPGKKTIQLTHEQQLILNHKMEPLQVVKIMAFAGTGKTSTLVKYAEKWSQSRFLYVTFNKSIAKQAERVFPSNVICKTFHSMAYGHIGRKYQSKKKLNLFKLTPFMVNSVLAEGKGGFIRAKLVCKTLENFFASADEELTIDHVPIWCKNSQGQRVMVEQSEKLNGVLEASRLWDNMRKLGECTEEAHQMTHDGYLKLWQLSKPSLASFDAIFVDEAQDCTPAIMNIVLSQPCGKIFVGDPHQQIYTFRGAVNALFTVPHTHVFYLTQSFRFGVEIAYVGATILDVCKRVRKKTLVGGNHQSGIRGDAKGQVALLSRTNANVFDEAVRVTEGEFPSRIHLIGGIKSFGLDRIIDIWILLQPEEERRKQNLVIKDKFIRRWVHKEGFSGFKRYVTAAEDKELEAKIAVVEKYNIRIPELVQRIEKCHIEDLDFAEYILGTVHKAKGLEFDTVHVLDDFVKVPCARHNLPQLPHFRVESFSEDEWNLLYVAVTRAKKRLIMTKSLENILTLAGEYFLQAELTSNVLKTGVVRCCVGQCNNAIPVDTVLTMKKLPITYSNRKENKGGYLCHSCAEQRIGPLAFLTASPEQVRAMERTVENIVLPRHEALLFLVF
UniProt Q9UKA2: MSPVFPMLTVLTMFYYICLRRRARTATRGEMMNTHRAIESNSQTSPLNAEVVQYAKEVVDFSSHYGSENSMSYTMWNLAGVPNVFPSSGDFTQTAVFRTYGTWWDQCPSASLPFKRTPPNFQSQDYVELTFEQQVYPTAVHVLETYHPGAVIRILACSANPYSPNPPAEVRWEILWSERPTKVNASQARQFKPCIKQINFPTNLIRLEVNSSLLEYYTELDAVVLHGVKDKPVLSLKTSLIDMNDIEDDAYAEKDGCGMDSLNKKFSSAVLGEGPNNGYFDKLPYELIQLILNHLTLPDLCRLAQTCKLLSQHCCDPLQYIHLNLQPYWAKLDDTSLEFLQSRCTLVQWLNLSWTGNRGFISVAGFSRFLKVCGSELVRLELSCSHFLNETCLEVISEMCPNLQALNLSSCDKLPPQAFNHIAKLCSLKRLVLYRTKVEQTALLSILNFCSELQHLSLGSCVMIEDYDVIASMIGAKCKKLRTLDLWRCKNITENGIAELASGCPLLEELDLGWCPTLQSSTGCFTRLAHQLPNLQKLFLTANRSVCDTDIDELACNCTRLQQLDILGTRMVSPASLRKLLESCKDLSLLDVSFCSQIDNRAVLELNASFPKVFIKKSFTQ
UniProt Q6UN15: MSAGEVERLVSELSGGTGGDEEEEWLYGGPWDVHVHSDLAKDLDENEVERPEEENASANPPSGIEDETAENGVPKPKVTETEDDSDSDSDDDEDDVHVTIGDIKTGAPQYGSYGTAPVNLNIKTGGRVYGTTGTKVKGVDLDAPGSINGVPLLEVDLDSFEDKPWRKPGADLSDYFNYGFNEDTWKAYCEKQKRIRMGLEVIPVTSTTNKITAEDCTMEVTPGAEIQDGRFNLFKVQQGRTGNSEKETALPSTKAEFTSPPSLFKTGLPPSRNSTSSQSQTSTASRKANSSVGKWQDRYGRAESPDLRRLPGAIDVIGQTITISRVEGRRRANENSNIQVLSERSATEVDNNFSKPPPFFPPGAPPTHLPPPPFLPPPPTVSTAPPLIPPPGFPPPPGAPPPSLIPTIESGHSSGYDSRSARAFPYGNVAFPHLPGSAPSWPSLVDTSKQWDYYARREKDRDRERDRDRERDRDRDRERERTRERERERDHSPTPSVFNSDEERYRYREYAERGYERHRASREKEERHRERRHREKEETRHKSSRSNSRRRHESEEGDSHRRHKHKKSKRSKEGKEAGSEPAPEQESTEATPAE
UniProt Q96PY5, whole entry, looked up: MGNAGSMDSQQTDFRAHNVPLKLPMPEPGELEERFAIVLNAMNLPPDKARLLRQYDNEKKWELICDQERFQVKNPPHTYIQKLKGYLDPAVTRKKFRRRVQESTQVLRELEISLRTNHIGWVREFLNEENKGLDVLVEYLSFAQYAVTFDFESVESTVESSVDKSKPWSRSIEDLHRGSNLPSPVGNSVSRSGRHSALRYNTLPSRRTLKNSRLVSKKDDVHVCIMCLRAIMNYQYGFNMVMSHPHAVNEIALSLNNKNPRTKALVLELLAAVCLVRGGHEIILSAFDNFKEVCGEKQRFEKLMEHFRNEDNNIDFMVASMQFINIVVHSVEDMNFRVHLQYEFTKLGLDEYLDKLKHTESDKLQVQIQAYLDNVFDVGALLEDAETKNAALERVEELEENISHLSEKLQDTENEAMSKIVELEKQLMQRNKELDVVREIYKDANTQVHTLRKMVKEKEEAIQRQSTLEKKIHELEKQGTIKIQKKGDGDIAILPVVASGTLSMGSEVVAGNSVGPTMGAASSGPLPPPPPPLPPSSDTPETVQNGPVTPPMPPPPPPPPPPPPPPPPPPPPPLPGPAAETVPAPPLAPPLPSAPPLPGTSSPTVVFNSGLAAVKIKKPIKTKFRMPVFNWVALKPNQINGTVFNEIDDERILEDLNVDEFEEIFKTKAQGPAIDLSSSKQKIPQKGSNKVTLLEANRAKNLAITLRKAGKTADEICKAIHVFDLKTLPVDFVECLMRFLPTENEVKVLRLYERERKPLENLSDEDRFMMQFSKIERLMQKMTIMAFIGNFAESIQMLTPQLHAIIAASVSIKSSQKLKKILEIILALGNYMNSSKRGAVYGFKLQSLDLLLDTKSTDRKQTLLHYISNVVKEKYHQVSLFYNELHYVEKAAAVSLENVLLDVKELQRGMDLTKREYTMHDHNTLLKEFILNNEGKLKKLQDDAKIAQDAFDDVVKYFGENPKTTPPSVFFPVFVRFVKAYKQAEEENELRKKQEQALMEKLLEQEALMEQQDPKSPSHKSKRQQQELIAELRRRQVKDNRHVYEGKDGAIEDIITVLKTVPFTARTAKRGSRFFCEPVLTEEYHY
UniProt B1AJZ9: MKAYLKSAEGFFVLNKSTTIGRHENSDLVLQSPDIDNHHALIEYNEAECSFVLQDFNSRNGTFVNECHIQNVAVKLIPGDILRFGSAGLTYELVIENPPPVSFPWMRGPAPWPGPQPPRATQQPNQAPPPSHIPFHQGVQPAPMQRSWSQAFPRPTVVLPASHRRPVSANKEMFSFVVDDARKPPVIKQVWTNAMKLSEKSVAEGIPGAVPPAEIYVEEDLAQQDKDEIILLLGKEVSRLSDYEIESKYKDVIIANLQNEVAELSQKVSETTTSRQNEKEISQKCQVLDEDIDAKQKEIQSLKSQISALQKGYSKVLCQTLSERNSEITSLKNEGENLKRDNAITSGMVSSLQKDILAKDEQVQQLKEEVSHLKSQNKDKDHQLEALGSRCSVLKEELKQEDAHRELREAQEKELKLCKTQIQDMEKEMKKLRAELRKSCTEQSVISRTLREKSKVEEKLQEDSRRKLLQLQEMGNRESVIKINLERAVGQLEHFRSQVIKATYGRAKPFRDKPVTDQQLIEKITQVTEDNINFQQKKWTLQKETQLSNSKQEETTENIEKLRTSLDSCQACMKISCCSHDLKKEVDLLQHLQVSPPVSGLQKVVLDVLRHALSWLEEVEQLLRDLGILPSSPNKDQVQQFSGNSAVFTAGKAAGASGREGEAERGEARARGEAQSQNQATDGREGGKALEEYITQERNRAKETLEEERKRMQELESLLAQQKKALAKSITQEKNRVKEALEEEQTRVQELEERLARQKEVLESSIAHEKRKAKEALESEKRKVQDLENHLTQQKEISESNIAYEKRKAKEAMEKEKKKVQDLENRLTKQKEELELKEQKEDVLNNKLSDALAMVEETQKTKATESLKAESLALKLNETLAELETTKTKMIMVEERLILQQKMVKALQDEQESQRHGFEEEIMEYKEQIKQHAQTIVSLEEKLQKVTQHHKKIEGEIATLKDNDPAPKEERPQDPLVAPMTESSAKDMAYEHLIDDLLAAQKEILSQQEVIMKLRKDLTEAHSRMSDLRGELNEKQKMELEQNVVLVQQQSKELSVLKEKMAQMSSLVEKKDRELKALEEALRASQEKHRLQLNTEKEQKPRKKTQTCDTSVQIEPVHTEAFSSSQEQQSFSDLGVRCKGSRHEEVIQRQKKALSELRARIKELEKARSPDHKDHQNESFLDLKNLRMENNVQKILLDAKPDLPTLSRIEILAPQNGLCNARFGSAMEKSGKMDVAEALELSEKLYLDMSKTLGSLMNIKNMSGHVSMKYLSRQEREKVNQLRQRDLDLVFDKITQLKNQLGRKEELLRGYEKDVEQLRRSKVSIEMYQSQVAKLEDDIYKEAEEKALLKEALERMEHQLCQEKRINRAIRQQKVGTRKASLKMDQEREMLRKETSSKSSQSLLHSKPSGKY
UniProt P31994: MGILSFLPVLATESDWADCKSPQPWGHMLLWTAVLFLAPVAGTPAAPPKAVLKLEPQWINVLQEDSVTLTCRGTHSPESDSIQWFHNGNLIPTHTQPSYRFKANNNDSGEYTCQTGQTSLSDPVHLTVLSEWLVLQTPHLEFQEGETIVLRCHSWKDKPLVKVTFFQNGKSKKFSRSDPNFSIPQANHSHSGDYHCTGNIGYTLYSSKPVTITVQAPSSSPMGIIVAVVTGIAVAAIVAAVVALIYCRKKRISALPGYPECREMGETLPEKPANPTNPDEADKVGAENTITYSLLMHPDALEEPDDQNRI
UniProt P0C5J1: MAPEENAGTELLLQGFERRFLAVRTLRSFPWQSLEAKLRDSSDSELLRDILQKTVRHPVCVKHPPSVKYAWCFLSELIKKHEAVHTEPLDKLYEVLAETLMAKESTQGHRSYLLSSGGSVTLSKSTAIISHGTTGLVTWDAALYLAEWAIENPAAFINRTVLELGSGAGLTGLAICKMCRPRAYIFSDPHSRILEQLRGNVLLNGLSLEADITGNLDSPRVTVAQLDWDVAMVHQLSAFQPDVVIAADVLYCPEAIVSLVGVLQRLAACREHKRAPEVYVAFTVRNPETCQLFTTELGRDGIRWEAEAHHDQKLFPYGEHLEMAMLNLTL

This is one part of the list.

Compound in one experiment: CN1CC[C@H](c2c(O)cc(O)c3c(=O)cc(-c4ccccc4Cl)oc23)[C@H](O)C1 [alvocidib]
Description: log2 fold change, soluble protein after heating vs DMSO (PISA); higher = thermal stabilisation; K562 lysate, 10 uM; active = over 0.2 and 3.5 SD of the protein, either way, in both replicates (recomputed). In a few lines:
(§1)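 Thermal stability, expressed as log-two fold change relative to solvent controls, is given from duplicates. Crude K562 extract in PBS pH 7.4 with 1 mM MgCl2, at 1 mg/mL protein, was treated with 10 μM compound for 30 min and heated in aliquots for 3 min across 48°C-58°C. After pooling, adjustment to 0.5% NP-40 at 4°C and centrifugation at 21,000xg for 90 min, supernatant protein was measured by TMTpro 16plex LC-MS/MS with channel sums equalised.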
For the target FOSL1 (UniProt P15407), the log2 fold change is inactive: -0.03. Same read-out and setting: under FER isoform 3 (UniProt P16591) stands inactive: 0.179. The same measure, in the same setting: under FANCE (UniProt Q9HB96) stands inactive: -0.126. Same read-out and setting: under FCF1 (UniProt Q9Y324) stands inactive: 0.019; under FBH1 isoform 2 (UniProt Q8NFZ0), inactive: 0.016; under FOS (UniProt P01100), inactive: -0.102.

Compound in the next experiment: CN1CCc2c(c3ccccc3n2Cc2ccc(C(=O)NO)cc2)C1 [Tubastatin A]
Described as above. A digest of the protocol:
as §1
Consider FBXO33 (UniProt Q7Z6M2), for which the log2 fold change was inactive: 0. The same measure, in the same setting: under FEM1A (UniProt Q9BSK4) stands inactive: -0.127. As to FANCC (UniProt Q00597), the log2 fold change is inactive: -0.141. Regarding FBXO28 (UniProt Q9NVF7), the log2 fold change was inactive: -0.005. On to FBXL4 (UniProt Q9UKA2), for which the log2 fold change is inactive: -0.172.

As for FBXL19 (UniProt Q6PCT2), the log2 fold change was inactive: 0.09. Same read-out and setting: then FMR1 isoform 9 (UniProt Q06787), with inactive: -0.046; and FBXW8 (UniProt Q8N3Y1), with inactive: 0.232; and FIP1L1 isoform 3 (UniProt Q6UN15), with inactive: 0.024.

For the target FNTA (UniProt H0YCW1), the log2 fold change is inactive: 0.048.

For the target FLYWCH1 isoform 3 (UniProt Q4VC44), the log2 fold change is inactive: 0.135. Turning to FARP1 isoform 2 (UniProt Q9Y4F1), the log2 fold change was inactive: -0.108. Regarding FMNL2 isoform 3 (UniProt Q96PY5), the log2 fold change was inactive: 0.108. As for FHAD1 isoform 3 (UniProt B1AJZ9), the log2 fold change is inactive: 0.192. The same measure, in the same setting: under FCGR2B (UniProt P31994) stands inactive: 0.171. With FILIP1L (UniProt Q4L180), the log2 fold change was inactive: 0.024. The same measure, in the same setting: under FAM86B2 (UniProt P0C5J1) stands inactive: -0.084.
